Measurements reported in PubChem BioAssay AID1053208 (Peter MacCallum Cancer Centre, 2014).

Aim: 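Synthetic lethal interactions between gene loss and doxorubicin in osteosarcoma cells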 (primary screen)
Cell system: mouse osteosarcoma cells, early-passage culture from an engineered mouse model of fibroblastic bone tumour
Reagent: siRNA pool against mouse genes, 40 nM
Time to read-out: about 120 h (48 h before drug, then 72 h with drug)
Treatment: doxorubicin 100 nM for 72 h, roughly 30-40% inhibitory dose
Detection: 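Luminescent ATP signal taken as viability with or without 100 nM doxorubicin for 72 h; mean of two wells set against non-targeting siRNA and turned into robust z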
Scale: viability z-score with doxorubicin: higher = more viable cells under doxorubicin; viability z-score without drug: higher = more viable cells with knock-down alone
Hit rule: 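Called active if knock-down leaves viability unchanged without drug (z within -2 to 2) but lowers it with doxorubicin (z at or under -2)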
Here is one part, drawn at random, of about 17,000 reagents. 788 of them (4.7%) were called active. 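Calls rest on z-score classes alone; an extra cut-off of viability at most 70% of control was not applied to them.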 Reagents against one gene are numbered here. Not all columns of the deposit are shown.

no.	Gene	reagent	combined z-score class	viability z-score with doxorubicin	viability z-score without drug	activity call
1	Gmppb (GDP-mannose pyrophosphorylase B)	1	no change with or without drug	0	0.17	inactive
2	Or5g25 (olfactory receptor family 5 subfamily G member 25)	1	no change with or without drug	1.57	1.35	inactive
3	Las1l (LAS1-like (S. cerevisiae))	1	low cell count without drug only	-0.67	-2.19	inactive
4	Vav1 (vav guanine nucleotide exchange factor 1)	1	low cell count with doxorubicin only	-3.37	-1.18	active
5	Pde1c (phosphodiesterase 1C)	1	no change with or without drug	1.12	1.18	inactive
6	Or5ak24 (olfactory receptor family 5 subfamily AK member 24)	1	no change with or without drug	-0.45	-0.51	inactive
7	Popdc1 (popeye domain cAMP effector 1)	1	no change with or without drug	-0.22	1.35	inactive
8	Or1j20 (olfactory receptor family 1 subfamily J member 20)	1	no change with or without drug	0.22	-0.84	inactive
9	S100a13 (S100 calcium binding protein A13)	1	no change with or without drug	-0.22	-1.18	inactive
10	Atr (ataxia telangiectasia and Rad3 related)	1	no change with or without drug	-0.22	-1.01	inactive
11	Myl2 (myosin, light polypeptide 2, regulatory, cardiac, slow)	1	no change with or without drug	1.12	0.51	inactive
12	Sgsh (N-sulfoglucosamine sulfohydrolase (sulfamidase))	1	no change with or without drug	1.24	1.52	inactive
13	Dnai7 (dynein axonemal intermediate chain 7)	1	no change with or without drug	-1.46	-0.67	inactive
14	Or12e10 (olfactory receptor family 12 subfamily E member 10)	1	no change with or without drug	0.9	-0.17	inactive
15	5930431H10	1	no change with or without drug	0	0.17	inactive
16	Ano2 (anoctamin 2)	1	no change with or without drug	-0.11	0.51	inactive
17	Or8d23 (olfactory receptor family 8 subfamily D member 23)	1	no change with or without drug	-0.9	-1.35	inactive
18	Ankrd44 (ankyrin repeat domain 44)	1	no change with or without drug	-1.8	-1.52	inactive
19	Or6z6 (olfactory receptor family 6 subfamily Z member 6)	1	no change with or without drug	1.01	0.17	inactive
20	Or14j1 (olfactory receptor family 14 subfamily J member 1)	1	no change with or without drug	-0.9	-1.18	inactive
21	Clba1 (clathrin binding box of aftiphilin containing 1)	1	no change with or without drug	-1.46	-0.17	inactive
22	Glrp1 (glutamine repeat protein 1)	1	high cell count with doxorubicin only	2.14	1.52	inactive
23	Rpgrip1l (Rpgrip1-like)	1	no change with or without drug	0.67	1.18	inactive
24	Adgre5 (adhesion G protein-coupled receptor E5)	1	no change with or without drug	0.45	0.17	inactive
25	Rnf122 (ring finger protein 122)	1	low cell count with doxorubicin only	-3.15	0.17	active
26	Gal3st1 (galactose-3-O-sulfotransferase 1)	1	no change with or without drug	0.9	1.35	inactive
27	Slc12a4	1	no change with or without drug	0.67	0.34	inactive
28	Idnk (IDNK gluconokinase)	1	no change with or without drug	1.12	0.51	inactive
29	Cbr2 (carbonyl reductase 2)	1	no change with or without drug	-1.46	0.51	inactive
30	C230013L11Rik (RIKEN cDNA C230013L11 gene)	1	no change with or without drug	-0.56	-0.84	inactive
31	Sgf29 (SAGA complex associated factor 29)	1	low cell count without drug only	-1.8	-2.87	inactive
32	Sema6d	1	no change with or without drug	-0.45	-0.17	inactive
33	Bmx (BMX non-receptor tyrosine kinase)	1	no change with or without drug	-0.45	0.84	inactive
34	Syt2 (synaptotagmin II)	1	no change with or without drug	-0.22	-0.84	inactive
35	Hs3st2 (heparan sulfate (glucosamine) 3-O-sulfotransferase 2)	1	no change with or without drug	-0.67	0	inactive
36	Magea1 (MAGE family member A1)	1	low cell count with doxorubicin only	-2.02	0.51	active
37	Selenos (selenoprotein S)	1	no change with or without drug	-0.67	0.51	inactive
38	Gabra6 (gamma-aminobutyric acid type A receptor subunit alpha 6)	1	no change with or without drug	1.12	-0.34	inactive
39	Elmod3 (ELMO/CED-12 domain containing 3)	1	no change with or without drug	0.67	-0.51	inactive
40	Ankfy1 (ankyrin repeat and FYVE domain containing 1)	1	no change with or without drug	-0.22	-1.85	inactive
41	Prlr (prolactin receptor)	1	no change with or without drug	1.01	0.51	inactive
42	Prlr (prolactin receptor)	2	no change with or without drug	0.45	-0.17	inactive
43	Tprn (taperin)	1	no change with or without drug	0.45	-0.51	inactive
44	Adamts16 (ADAM metallopeptidase with thrombospondin type 1 motif 16)	1	no change with or without drug	-1.24	0	inactive
45	Paqr9 (progestin and adipoQ receptor family member IX)	1	high cell count without drug only	0.22	2.53	inactive
46	Kif21a (kinesin family member 21A)	1	no change with or without drug	-0.67	-0.17	inactive
47	Ift56 (intraflagellar transport 56)	1	high cell count with doxorubicin only	2.25	1.85	inactive
48	Plaat5 (phospholipase A and acyltransferase 5)	1	low cell count with doxorubicin only	-2.7	0.17	active
49	Foxb1 (forkhead box B1)	1	no change with or without drug	-0.67	1.85	inactive
50	Gdpgp1 (GDP-D-glucose phosphorylase 1)	1	no change with or without drug	-1.57	0.84	inactive

Ordered by “viability z-score without drug” (high to low): some entries from above.
Gene	reagent	combined z-score class	viability z-score with doxorubicin	viability z-score without drug	activity call
Bmx (BMX non-receptor tyrosine kinase)	1	no change with or without drug	-0.45	0.84	inactive
Hs3st2 (heparan sulfate (glucosamine) 3-O-sulfotransferase 2)	1	no change with or without drug	-0.67	0	inactive
Syt2 (synaptotagmin II)	1	no change with or without drug	-0.22	-0.84	inactive
